Data as given in patent publication EP2167056B1, “TRANSDERMAL AND TRANSMUCOSAL DRUG DELIVERY ENHANCERS” (priority 2007, dated 2008).

Test: Franz diffusion cell permeation of hydromorphone hydrochloride with delmopinol analogues (Example 2)
Conditions: 5 % hydromorphone hydrochloride, no enhancing agent added
Description: The permeation test was carried out using a Franz diffusion cell with a diffusion area of 1.8 cm^2 as in Example 1. […] Penetration with or without addition of different delmopinol analogues was studied in 5 parallel tests (3 cells per test).

In the case of `CN1CC[C@]23c4c5ccc(O)c4O[C@H]2C(=O)CC[C@H]3[C@H]1C5.Cl` [hydromorphone hydrochloride, reference compound], the “amount of hydromorphone hydrochloride found on the receptor side” value is reported as “no detectable amount”.
